Measurements as given in PubChem BioAssay AID504444 (National Center for Advancing Translational Sciences (NCATS), 2011).
Out of some 360,000 compounds screened, about 7,500 (2.1%) were called active. The inconclusive results got no clear call from the source; some entries with a clear call stand among them for comparison. Calls come from the whole dose curve; as a rule, active = well fitted inhibition curve with a large enough effect; inconclusive = small, poorly fitted or top-dose-only effect, or effect the other way; inactive = flat fitted curve, though single readings scatter. Potencies of inconclusive entries are doubtful fits and often do not repeat.

Test: Nrf2 qHTS screen for inhibitors; note: nearly all actives have a fitted effect of over 60% in size
Settings: A549 ARE-Fluc reporter, luciferase luminescence, 18-24 h; series mostly up to 46 µM
Outline: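 In this cell-based qHTS, ARE-driven firefly luciferase in A549 cells reports Nrf2 activity; the luminescent signal after BugLite lysis is the measured value, with a prior CellTiter-Fluor read for cell health.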
Potency is the fitted concentration of half-maximal effect.

Q: For Cc1ccc(Nc2ncnc3nc[nH]c23)cc1Cl, which Potency is on record?
A: Its Potency is inconclusive: 4.11 µM [activator, full curve].

Q: With COc1cc(-c2noc(-c3cc(C)[nH]n3)n2)cc(OC)c1OC as the compound, how does the Potency read?
A: The Potency was inconclusive: 8.2 µM [activator, partial curve, poor fit].

Q: For Cc1onc(-c2c(Cl)cccc2Cl)c1C(=O)N[C@@H]1C(=O)N2[C@@H]1SC(C)(C)[C@@H]2C(=O)O, which Potency is on record?
A: Its Potency is inconclusive: 23.1 µM [falling, partial curve].

Q: With O=C(Cn1cc(SCc2ccc(F)cc2)c2ccccc21)N1CCOCC1 as the compound, how does the Potency read?
A: Its Potency is “inactive”.

Q: Which Potency does the source give for CCN1CCN(C(=O)c2cnn(-c3cccc(C)c3)c2C2CCN(C(=O)OC(C)(C)C)CC2)CC1 here?
A: The Potency was inconclusive: 29.1 µM [activator, single point].

Q: Which Potency does the source give for CCCc1ccc(NC(C)C(=O)Nc2ccc(S(=O)(=O)N3CCOCC3)cc2)cc1 (centres undefined) here?
A: Its Potency is inconclusive: 16.4 µM [falling, single point].

Q: Which Potency does the source give for COc1ccc(-c2nc(-c3ccccc3)nc(N3CCN(C)CC3)c2C#N)cc1 here?
A: The Potency was “inactive”.

Q: With CCOC(=O)C1=NNC2C(=O)N(Cc3ccccc3)C(=O)C12 (centres undefined) as the compound, how does the Potency read?
A: Its Potency is “inactive”.

Q: Which Potency does the source give for O=C(O)Cc1nnc(-c2cc3ccccc3[nH]2)s1 here?
A: Its Potency is inconclusive: 2.31 µM [activator, full curve].

Q: For NC(=O)[C@H]1CC2(CC(c3cccc(NC(=O)COc4ccc(Cl)cc4)c3)=NO2)CN1C(=O)Cc1ccc([N+](=O)[O-])cc1 (some centres undefined), which Potency is on record?
A: The Potency was inconclusive: 3.66 µM [falling, full curve, poor fit].

Q: For CC1=C(C#N)C(c2cccnc2)C2=C(CC(C)(C)CC2=O)N1 (centres undefined), which Potency is on record?
A: Its Potency is “inactive”.

Q: For Cc1c(Br)c([N+](=O)[O-])nn1CC(=O)Nc1ccc(C(C)C)cc1, which Potency is on record?
A: Its Potency is inconclusive: 20.6 µM [falling, single point].

Q: Which Potency does the source give for Cc1ccc(-n2nnc(-c3cc4ccccc4n3C)n2)cc1 here?
A: Its Potency is inconclusive: 2.59 µM [activator, full curve].

Q: For COc1ccc(C(C)(C)C)cc1NC(=O)CCCn1c(=O)oc2ccccc21, which Potency is on record?
A: Its Potency is “inactive”.

Q: Which Potency does the source give for CCNc1ccc(Br)cc(C(=O)/C=C/c2c(Cl)cccc2Cl)c1=O here?
A: Its Potency is inconclusive: 29.1 µM [falling, single point].

Q: Which Potency does the source give for COc1ccc2c(C)c(CCC(=O)NCc3ccc(OC)c(OC)c3)c(=O)oc2c1 here?
A: Its Potency is “inactive”.

Q: Which Potency does the source give for Cc1ccccc1CNC(=O)/C=C\C(=O)O here?
A: Its Potency is “inactive”.

Q: Which Potency does the source give for CN1CCN(CCC(=O)N/N=C/c2ccccn2)CC1 here?
A: Its Potency is “inactive”.

Q: With CCc1nc2oc3cc(OC)ccc3c(=O)c2c(=O)n1Cc1ccccc1 as the compound, how does the Potency read?
A: Its Potency is inconclusive: 3.26 µM [activator, full curve, poor fit].

Q: With CCOc1cc(C2c3c(oc4ccccc4c3=O)C(=O)N2Cc2ccccc2Cl)ccc1O (centres undefined) as the compound, how does the Potency read?
A: The Potency was inconclusive: 29.1 µM [activator, single point].

Q: Which Potency does the source give for Cc1sc(NC(=O)COc2ccc(C(C)(C)C)cc2)c(C(=O)OC(C)C)c1C here?
A: Its Potency is “inactive”.

Q: Which Potency does the source give for COc1ccc(-n2nc(C(=O)NCC(=O)N3CCCCC3)c3ccccc3c2=O)cc1 here?
A: Its Potency is inconclusive: 13 µM [activator, partial curve].

Q: With N/C(=N\OC(=O)Nc1ccccc1)c1ncc(C(F)(F)F)cc1Cl as the compound, how does the Potency read?
A: Its Potency is inconclusive: 18.4 µM [activator, partial curve].

Q: With O=C(O)c1ccc(Nc2ccc(Cl)c(Cl)c2)c([N+](=O)[O-])c1 as the compound, how does the Potency read?
A: The Potency was inconclusive: 16.4 µM [falling, partial curve, poor fit].

Q: With NC(=O)c1ccccc1C[C@H](C(=O)O)N1C(=O)c2ccc(C(=O)O)cc2C1=O as the compound, how does the Potency read?
A: The Potency was “inactive”.

Q: Which Potency does the source give for O=C(NC(=S)Nc1ccc(N2CCCCC2)c(Cl)c1)c1ccc2c(c1)OCCO2 here?
A: The Potency was active: 9.2 µM.

Q: For Cc1ccc(C(C(=O)NC2CCCCC2)N(CCCN2CCOCC2)C(=O)c2snc(C(N)=O)c2N)cc1 (centres undefined), which Potency is on record?
A: Its Potency is inconclusive: 6.51 µM [activator, single point].

Q: With O=C(NCC1CCCO1)c1cc(-c2ccco2)nc2ccccc12 (centres undefined) as the compound, how does the Potency read?
A: The Potency was “inactive”.

Q: Which Potency does the source give for O=C1c2ccccc2-c2nnc(-c3ccc(O)cc3)cc21 here?
A: The Potency was inconclusive: 2.06 µM [activator, full curve].

Q: With COc1cc(OC)c2c(-c3cccc(/C=C/c4ccc(F)cc4)c3)cc(=O)oc2c1 as the compound, how does the Potency read?
A: The Potency was inconclusive: 9.2 µM [activator, partial curve].

Q: For Cc1cc(O)c(-c2cc(O)c(C)cc2O)cc1O, which Potency is on record?
A: Its Potency is “inactive”.

Q: With COc1cccc(CNC(=O)c2c3c(nc4ccccc24)C(=O)N(C2CCCCC2)C3)c1 as the compound, how does the Potency read?
A: The Potency was inconclusive: 13 µM [falling, partial curve, poor fit].

Q: For c1ccc2c(c1)nnn2-c1ncnc2sccc12, which Potency is on record?
A: Its Potency is inconclusive: 8.2 µM [activator, partial curve, poor fit].

Q: Which Potency does the source give for Cc1cc(C)nc(NC(=O)CSc2nccc(C)n2)n1 here?
A: The Potency was inconclusive: 4.61 µM [activator, partial curve, poor fit].

Q: For CC[C@]1(c2cccc(C)c2)C(=O)N(C(=O)OC)N1C(=O)OC, which Potency is on record?
A: The Potency was inconclusive: 29.1 µM [falling, single point].

Q: For Cn1cnnc1SCC(=O)Nc1ccc(Cl)cn1, which Potency is on record?
A: The Potency was “inactive”.

Q: With Cc1cccc(C)c1NC(=O)CN(C)S(=O)(=O)c1ccc2c(c1)n(C)c(=O)c(=O)n2C as the compound, how does the Potency read?
A: Its Potency is “inactive”.

Q: For COc1ccc2cc(-c3[nH]ncc3CN3CCCCO3)ccc2c1, which Potency is on record?
A: Its Potency is inconclusive: 23.1 µM [activator, single point].

Q: With O=C(CSc1nnnn1-c1cccc2c1CCCC2)N1CCCCC1 as the compound, how does the Potency read?
A: The Potency was inconclusive: 25.9 µM [falling, single point].

Q: With COc1ccc(N2CCN(C(=O)CCCN3C(=O)c4cccc5cccc(c45)C3=O)CC2)cc1 as the compound, how does the Potency read?
A: The Potency was inconclusive: 16.4 µM [falling, partial curve, poor fit].

Q: Which Potency does the source give for O=C(CN1C(=O)C2C3C=CC(C3)C2C1=O)Nc1nncs1 (centres undefined) here?
A: Its Potency is inconclusive: 2.31 µM [activator, full curve, poor fit].

Q: For COc1ccc(-c2cccc(NS(=O)(=O)c3cc([N+](=O)[O-])c(C)c([N+](=O)[O-])c3)c2)nn1, which Potency is on record?
A: The Potency was inconclusive: 32.6 µM [falling, single point].

Q: Which Potency does the source give for CCn1nc(C)c(C(=O)Nc2cc(Oc3cc(C)cc(C)c3)cc([N+](=O)[O-])c2)c1C here?
A: The Potency was active: 20.6 µM.

Q: Which Potency does the source give for Cc1ccc(NC(=O)C2CCN(S(=O)(=O)c3ccc(N4CCCC4=O)cc3)CC2)cc1Cl here?
A: The Potency was active: 10.3 µM.
